Values from PubChem BioAssay AID1508588 (Peter MacCallum Cancer Centre, 2020).
In all, the deposit lists about 18,000 reagents; this is an unselected part. 790 of all reagents (4.4%) were called active. 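Calls rest on a combination of fold-change classes in drug and vehicle arms, not all shown here.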 Entries without a mark were called inactive. Reagent sequences are not shown.

Assay: 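Knock-downs boosting vemurafenib effects on melanoma cell growth or lactate release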 (primary screen)
System: human WM266.4 melanoma cells (BRAF V600 mutant)
Reagents: siRNA pool against human genes, 40 nM
Timing: 96 h from transfection to read-out
Treatment: vemurafenib 300 nM (about IC25), added 48 h after transfection, for 48 h; comparison arm got DMSO vehicle only
Detection: 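Cell gain (DAPI nuclei at end minus before drug, mean of two replicates) and medium lactate by absorbance per cell, both as ratio to non-targeting siRNA, also grouped into fold-change classes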
Scale: cell gain with vemurafenib: higher = more cell gain than with non-targeting siRNA; lactate per cell with vemurafenib: higher = more lactate made per cell
Hit rule: 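Enhancement is called by pairing each knock-down's vehicle-arm and drug-arm fold-change classes for viability or glycolysis; which class combinations qualify is not given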
Calls: active = enhances vemurafenib effect; inactive = no enhancement seen

For UBE2V1 (ubiquitin conjugating enzyme E2 V1), how do the results read?
cell gain with vemurafenib: 0.56; lactate per cell with vemurafenib: 1.56

For CYRIB (CYFIP related Rac1 interactor B), what was measured?
cell gain with vemurafenib: 0.87; lactate per cell with vemurafenib: 1.3

For SF3A2 (splicing factor 3a subunit 2), what does the deposit list?
cell gain with vemurafenib: 0.08; lactate per cell with vemurafenib: 1.5

How did the screen score MRPL20 (mitochondrial ribosomal protein L20)?
cell gain with vemurafenib: 0.76; lactate per cell with vemurafenib: 2.08

What is on record for HEBP2 (heme binding protein 2)?
cell gain with vemurafenib: 0.38; lactate per cell with vemurafenib: 1.42

Which result is listed for SLC35B3?
cell gain with vemurafenib: 0.1; lactate per cell with vemurafenib: 1.46

For MAD2L2 (mitotic arrest deficient 2 like 2), how do the results read?
cell gain with vemurafenib: 0.33; lactate per cell with vemurafenib: 0.92

For LRRC26 (leucine rich repeat containing 26), what was measured?
cell gain with vemurafenib: 1.14; lactate per cell with vemurafenib: 0.6

How did the screen score CCDC117 (coiled-coil domain containing 117)?
cell gain with vemurafenib: 0.71; lactate per cell with vemurafenib: 1.11

With ZNF408 (zinc finger protein 408), what was measured?
cell gain with vemurafenib: 0.67; lactate per cell with vemurafenib: 1.1

With HROB (homologous recombination factor with OB-fold), what was measured?
cell gain with vemurafenib: 0.28; lactate per cell with vemurafenib: 1.41

With TNFRSF19 (TNF receptor superfamily member 19), what does the deposit list?
cell gain with vemurafenib: 0.88; lactate per cell with vemurafenib: 0.78

What is on record for PLA2G4D (phospholipase A2 group IVD)?
cell gain with vemurafenib: 0.36; lactate per cell with vemurafenib: 1.27

Which result is listed for NT5C3B (5'-nucleotidase, cytosolic IIIB)?
cell gain with vemurafenib: 0.81; lactate per cell with vemurafenib: 1.42

With LRPAP1 (LDL receptor related protein associated protein 1), what does the deposit list?
cell gain with vemurafenib: 0.89; lactate per cell with vemurafenib: 0.58

For MASTL (microtubule associated serine/threonine kinase like), what does the deposit list?
cell gain with vemurafenib: 0.09; lactate per cell with vemurafenib: 1.5

For TUBB4B (tubulin beta 4B class IVb), how do the results read?
cell gain with vemurafenib: 0.33; lactate per cell with vemurafenib: 1.31

With LRRC39 (leucine rich repeat containing 39), what does the deposit list?
cell gain with vemurafenib: 0.59 (active); lactate per cell with vemurafenib: -0.06

For RPP38 (ribonuclease P/MRP subunit p38), what does the deposit list?
cell gain with vemurafenib: 0.55; lactate per cell with vemurafenib: 0.81

With WDR76 (WD repeat domain 76), what does the deposit list?
cell gain with vemurafenib: 0.95; lactate per cell with vemurafenib: 1.01

How did the screen score RAB3GAP1 (RAB3 GTPase activating protein catalytic subunit 1)?
cell gain with vemurafenib: 0.86; lactate per cell with vemurafenib: 0.57

For GLRX2 (glutaredoxin 2), what was measured?
cell gain with vemurafenib: 0.61; lactate per cell with vemurafenib: 1.23

How did the screen score CNTN4 (contactin 4)?
cell gain with vemurafenib: 0.39; lactate per cell with vemurafenib: 0.8

With ENPP2 (ectonucleotide pyrophosphatase/phosphodiesterase 2), how do the results read?
cell gain with vemurafenib: 0.13; lactate per cell with vemurafenib: 0.94

With IFNA17 (interferon alpha 17), what was measured?
cell gain with vemurafenib: 0.72; lactate per cell with vemurafenib: 0.77

With RMDN2 (regulator of microtubule dynamics 2), what was measured?
cell gain with vemurafenib: 0.6; lactate per cell with vemurafenib: 1.51

For LRP5 (LDL receptor related protein 5), what does the deposit list?
cell gain with vemurafenib: 0.72; lactate per cell with vemurafenib: 0.82

Records listed so far with an active call (1):
LRRC39 (leucine rich repeat containing 39): cell gain with vemurafenib = 0.59 (active); lactate per cell with vemurafenib = -0.06
